## Primary screen of a compound library

Protein sequences, listed by entry. Tags and fused reporters are not part of them.
UniProt E9BF75, entry or part of it: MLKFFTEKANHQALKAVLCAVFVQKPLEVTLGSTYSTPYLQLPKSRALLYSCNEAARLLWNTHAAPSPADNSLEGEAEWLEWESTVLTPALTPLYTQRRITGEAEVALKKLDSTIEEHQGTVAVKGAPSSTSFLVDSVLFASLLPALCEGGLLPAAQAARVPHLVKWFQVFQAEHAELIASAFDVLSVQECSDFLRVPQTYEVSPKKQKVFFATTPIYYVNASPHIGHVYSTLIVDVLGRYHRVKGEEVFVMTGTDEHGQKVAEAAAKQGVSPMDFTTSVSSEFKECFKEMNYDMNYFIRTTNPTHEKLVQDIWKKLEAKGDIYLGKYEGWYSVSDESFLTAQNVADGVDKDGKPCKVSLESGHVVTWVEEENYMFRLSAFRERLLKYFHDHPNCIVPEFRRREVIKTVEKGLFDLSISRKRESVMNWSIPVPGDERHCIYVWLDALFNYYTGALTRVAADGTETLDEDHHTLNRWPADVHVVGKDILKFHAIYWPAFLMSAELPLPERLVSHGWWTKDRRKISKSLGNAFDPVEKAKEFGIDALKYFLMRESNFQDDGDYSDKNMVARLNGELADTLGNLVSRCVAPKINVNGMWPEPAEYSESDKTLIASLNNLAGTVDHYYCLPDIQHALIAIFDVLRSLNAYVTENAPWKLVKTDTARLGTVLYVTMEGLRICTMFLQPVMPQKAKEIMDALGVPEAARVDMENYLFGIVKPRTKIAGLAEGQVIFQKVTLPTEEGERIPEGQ

Results are percentages, as filed.
How 0% and 100% were set is not recorded. Most values in the screen are low, and negative values occur.
Compounds were drawn at random from those tested, without regard to their results.

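Primary screen of methionyl-tRNA synthetase; the read-out is not stated. Target: Methionyl-tRNA synthetase (putative), Leishmania donovani (UniProt E9BF75). The test concentration is not given. Values are per cent inhibition. Of about 68,000 compounds tested this way, about 24 (0.035%) reached 50% or more in at least one test.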

structure	Inhibition
COc1nc(C)ccc1CNC(=O)NC(C)Cc1c(C)nn(C)c1C (stereo not given)	16.48%
COc1ccccc1C(=O)N(C)Cc1nnc2ccccn12	19.34%
Cc1cc(C)n(C2CCCN(C(=O)CCOc3ccccc3F)C2)n1 (stereo not given)	17.75%
CC(NC(=O)CCCOc1ccccc1)c1nnc2n1CCCCC2 (stereo not given)	2.614%
Cn1cccc1-c1cc(C(=O)N2CCCC2c2nccs2)[nH]n1 (stereo not given)	13.19%
CN1CC2(CCN(C(=O)c3ccc(-n4cccn4)cc3Cl)C2)OC1=O (stereo not given)	0.625%
COc1cc2nc(NCCN3CCNC3=O)cc(C)c2cc1OC	3.581%
Cc1cnn(CCNc2cnc3ccccc3n2)c1	19.34%
O=C(NCc1cnn(-c2ccc(F)cc2F)c1)C1CCCO1 (stereo not given)	10.31%
CCN(CC)[C@H]1COC[C@@H]2CN(Cc3cnn(C)c3)C[C@@H]21	16.79%
CN(C(=O)c1ccc(Cl)c(S(C)(=O)=O)c1)c1ccccc1	10.87%
c1cnc(N2CCCC3(CCN(c4ncccn4)C3)C2)nc1 (stereo not given)	9.816%
Cc1c(C(C)Nc2ncnc3sccc23)cnn1C (stereo not given)	16.37%
Cn1ccnc1C(NCc1ccc(Br)cc1)c1ccccc1 (stereo not given)	16.19%
Cc1ccc2[nH]c(=O)c(CN(C)Cc3cc(C4CC4)[nH]n3)cc2c1	8.38%
Cc1n[nH]c(C)c1CC(=O)NCc1ccccc1Cl	18.66%
CCCN(CCOC)C(=O)c1cc(Cn2c(C)nc3ccccc32)[nH]n1	19.58%
Cc1cc(O)cc(=O)n1CCCC(=O)Nc1n[nH]c2cc(Br)ccc12	19.24%
Cc1nc(CN2CCCC(CCc3ccccc3C(F)(F)F)C2)no1 (stereo not given)	9.278%
CCCS(=O)(=O)N1CCn2cc(CNc3ccccn3)nc2C1	14.66%
COc1cnc(CSc2nnc(C)s2)cc1OCC(=O)NC(C)(C)C	15.16%
Cc1nnc2n1CCN(Cc1c(Cl)ccc3cccnc13)C2	7.205%
CC1c2ncc(COCC3CC3)n2CCN1C (stereo not given)	9.408%
COc1cc(C)c(NC(=O)NCCn2cccc2)cc1OC	8.333%
O=C([C@@H]1COC[C@H]2CN(CC3CC3)C[C@H]21)N1CCC(F)CC1	6.159%
COCCN1CC[C@@H]2OC(COCC(=O)N3CCCC3)CC[C@@H]21 (stereo not given in full)	18.12%
CSCc1noc(CNC2CCCC(C)(C)C2)n1 (stereo not given)	2.046%
O=C1CCC2(CCCN(c3ncc(Cl)cc3F)C2)CN1CC1CC1 (stereo not given)	17.69%
O=C(c1ccco1)N1CC2(CCNCC2)c2cc(Cl)ccc21	-0.9615%
Cc1c(NC(=O)c2noc3c2CCCC3)cnn1C	-0.8108%
CN(C)Cc1ccccc1CN(C)C(=O)c1ccoc1	15.05%
CC(Sc1nnnn1C1CCOCC1)C(F)(F)F (stereo not given)	9.971%
COCc1nc(Cn2c(C)cc(C(F)(F)F)cc2=O)no1	10.18%
O=C(NCC1CCC1)c1ccnc(-n2ccnc2)c1	3.722%
O=C(CCCn1cncn1)N1CCC2(CC1)[C@H](O)C[C@@H]2OCCO	17.37%
COCCn1c(=O)n(Cc2cccc(F)c2F)c2cc(C(=O)O)ccc21	0.5988%
COCCN1CCN(Cc2ccncc2)[C@H]2CS(=O)(=O)C[C@H]21	11.11%
Cc1noc(C)c1CNC(=O)Nc1ccc(N2CCOC2=O)cc1	15.32%
Cc1noc(C)c1CN(C)CC(=O)N1CCc2sccc2C1	19.88%
O=C(Nc1ccc2scnc2c1)N1CCN([C@H]2CCCC[C@@H]2O)CC1	15.66%
COc1cc(CNc2ccccc2Cl)ccc1OCC(=O)O	7.508%
CN(C)[C@@H]1CCN(c2ncc(F)cn2)[C@H]1Cc1ccncc1	9.446%
COCCn1ccc(NC(=O)Nc2ccc(C)cc2)n1	8.355%
CC(=O)Nc1ccc(Oc2cccc(CN3CCCC3)c2)cc1	14.81%
COc1ncc(C2(O)CCN(Cc3ccc(F)c(F)c3)CC2)c(OC)n1	11.53%
CCC(C(=O)N(Cc1ccccc1OC)C1CC1)n1cccn1 (stereo not given)	13.94%
COc1cc(C(C)=O)ccc1OCC(=O)N(Cc1ccsc1)C1CC1	11.04%
CC(C)Cn1ccnc1CNC(=O)NC(C)(C)c1nccs1	5.514%
Cc1cc(C)c2c(N3CCC(C(=O)N4CCCC4)CC3)ncnc2n1	19%
Cc1ccc(-c2cnc3n2CCN(C)C32CCN(CC3CC3)CC2)cc1	14.98%
N[C@@H]1CCN(Cc2cc(-c3ccccc3OC(F)(F)F)no2)C[C@H]1O	12.72%
CCOC(=O)C1(Cc2ccccc2)CCCN(Cc2nccn2CC)C1 (stereo not given)	8.052%
N#CCCN(C(=O)COC1CCCC1)C1CC1	4.511%
O=S(=O)(C1CC1)N1CCC2(CCCN(Cc3ccccn3)C2)CC1	6.011%
Cc1nc(N2CCOCC2)nc2c1CN(C(=O)Cc1ccccn1)CC2	4.724%
COc1ccccc1-c1nnc([C@H]2CCN(C(=O)C3CC3)C2)o1	6.044%
COc1ccccc1Oc1ncccc1CNC(=O)C(C)N1CCCC1 (stereo not given)	11.5%
COc1c(F)cc(CN2CCC3(CC2)C(C(=O)O)CC(=O)N3C)cc1Cl (stereo not given)	10.27%
CSCC(C)N(C)C(=O)CN1CCN(c2ccccn2)CC1 (stereo not given)	2.405%
c1cnn(Cc2nnc(C3CCN(C4CCOCC4)CC3)n2C2CC2)c1	16.59%
CCc1ccc(C2CC(=O)Nc3n[nH]cc32)o1 (stereo not given)	16.31%
CCCN1CCCn2nc(CNC(=O)CCOC)cc2C1	8.711%
CSc1ccc(C(=O)C2CCCN(C(=O)Cn3cnnn3)C2)cc1 (stereo not given)	4.11%
O=C(NCc1cccs1)C1CN(C(=O)c2cccs2)CC12CCOCC2 (stereo not given)	11.3%
N#Cc1ccc(C(=O)N2CCC3(CC2)CC3)cc1	8.964%
COc1cccc(CNc2cc(N3CCCC3CO)ncn2)n1 (stereo not given)	17.47%
CC(NC(=O)c1ccc(CS(C)(=O)=O)o1)c1ccc(F)c(F)c1 (stereo not given)	25.27%
CCc1nc(CN(C)C2CCN(Cc3nnc(C4CCC4)o3)C2)no1 (stereo not given)	9.29%
CSCCC(=O)N[C@H]1CC[C@H](Nc2nccc(-c3ccncc3)n2)C1	1.437%
O=C(c1ccncc1)N1CCCN(Cc2nnc(C3CC3)o2)CC1	10.03%
NC(=O)CC1CCCN(C(=O)NCC2(c3cccs3)CCCC2)C1 (stereo not given)	4.91%
CC1CN(CC(=O)Nc2nncs2)CCN1c1nccs1 (stereo not given)	6.667%
c1cnc2[nH]c(C3CCCC3)c(CN3CCCCC3)c2c1	9.375%
Cc1noc(Cl)c1CCC(=O)N1CCN(c2ncccn2)CC1	13.39%
CN1CCOC(CNCc2c(Cl)nc3ccccn23)C1 (stereo not given)	14.93%
CN(C)S(=O)(=O)N1CCC(Oc2ccc(C#N)cc2)CC1	14.16%
CC(C)Cn1cncc1CNC(=O)c1cccc(-n2cnnc2)c1	3.833%
CC(=O)N1CCc2[nH]cnc2C12CCN(C(=O)CCn1cccn1)CC2	11.34%
Cc1ccc(C(=O)NS(=O)(=O)c2ccccc2Cl)c(=O)[nH]1	0%
Cc1noc(-c2ccc(N(C)Cc3nccs3)nc2)n1	8.157%

Repeated from the top, 10 entries:

{"structure": "COc1nc(C)ccc1CNC(=O)NC(C)Cc1c(C)nn(C)c1C", "stereo": "stereo not given", "Inhibition": 16.48}
{"structure": "COc1ccccc1C(=O)N(C)Cc1nnc2ccccn12", "Inhibition": 19.34}
{"structure": "Cc1cc(C)n(C2CCCN(C(=O)CCOc3ccccc3F)C2)n1", "stereo": "stereo not given", "Inhibition": 17.75}
{"structure": "CC(NC(=O)CCCOc1ccccc1)c1nnc2n1CCCCC2", "stereo": "stereo not given", "Inhibition": 2.614}
{"structure": "Cn1cccc1-c1cc(C(=O)N2CCCC2c2nccs2)[nH]n1", "stereo": "stereo not given", "Inhibition": 13.19}
{"structure": "CN1CC2(CCN(C(=O)c3ccc(-n4cccn4)cc3Cl)C2)OC1=O", "stereo": "stereo not given", "Inhibition": 0.625}
{"structure": "COc1cc2nc(NCCN3CCNC3=O)cc(C)c2cc1OC", "Inhibition": 3.581}
{"structure": "Cc1cnn(CCNc2cnc3ccccc3n2)c1", "Inhibition": 19.34}
{"structure": "O=C(NCc1cnn(-c2ccc(F)cc2F)c1)C1CCCO1", "stereo": "stereo not given", "Inhibition": 10.31}
{"structure": "CCN(CC)[C@H]1COC[C@@H]2CN(Cc3cnn(C)c3)C[C@@H]21", "Inhibition": 16.79}

Source: ChEMBL document CHEMBL3988442, “University of Dundee, Small-Polar-MMV Screening Library” (2021).